Assay [1] concerns the target Myc-tagged Li-BH3AQP (Leishmania infantum) (UniProt A4I001). Kind of assay: co-IP; Myc-Li-BH3AQP and Flag-Bcl-XL coexpressed in HEK293T cells for 24 h; whole-cell extracts; immunoprecipitation with resin-conjugated anti-Myc antibody; western blot with anti-Flag. On the technique in general: A western blot detects proteins with antibodies after separation by electrophoresis.

Sequences of proteins named here, by UniProt entry; tags and fusion partners are left off. A change or cut given only in a name is not applied to a line headed by its entry.
UniProt A4I001: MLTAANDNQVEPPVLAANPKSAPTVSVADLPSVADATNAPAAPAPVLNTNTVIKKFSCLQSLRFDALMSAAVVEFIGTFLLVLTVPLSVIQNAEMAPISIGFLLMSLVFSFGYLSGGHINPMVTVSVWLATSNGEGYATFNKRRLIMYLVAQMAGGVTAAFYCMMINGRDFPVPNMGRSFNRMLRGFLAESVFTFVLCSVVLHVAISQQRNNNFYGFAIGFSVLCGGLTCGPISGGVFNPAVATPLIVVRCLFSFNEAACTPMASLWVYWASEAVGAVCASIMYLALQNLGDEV
UniProt Q07817: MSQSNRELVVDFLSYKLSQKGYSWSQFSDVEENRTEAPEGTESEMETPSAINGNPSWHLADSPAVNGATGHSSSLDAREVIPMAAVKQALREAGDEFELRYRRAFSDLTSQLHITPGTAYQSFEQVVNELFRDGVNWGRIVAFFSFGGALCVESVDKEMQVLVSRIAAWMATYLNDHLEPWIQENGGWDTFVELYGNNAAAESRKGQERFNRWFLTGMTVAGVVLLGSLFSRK

Assay [2] has as its target human Bcl-XL bound to the DNA-binding domain of GAL4 (human) (UniProt Q07817). Kind of assay: two-hybrid; S. cerevisiae AH109; Bcl-XL on the Gal4 DNA-binding domain as bait (pGBKT7), Li-BH3AQP on the Gal4 activation domain as prey (pGADT7); growth on -Leu/-Trp/-Ade/-His + x-alpha-Gal.

Results are given in words; binding and its absence hold for the method and conditions named. A result given as binding can be weak or reduced; the word gives no strength. For some assays here: In cells and extracts the contact can be indirect.

Consider “Flag-tagged human Bcl-XL (from UniProt Q07817-1 1-233)”, for which the binding entry in assay [1] is on record as “binds”. Turning to “Li-BH3AQP bound to the activation domain of GAL4 (from UniProt A4I001)”, the binding entry in assay [2] is “binds”.
